B1: Rpb7; numbered along this chain (parent)
chain: MFFIKDLSLNITLHPSFFGPRMKQYLKTKLLEEVEGSCTGKFGYILCVLDYDNIDIQRGRILPTDGSAEFNVKYRAVVFKPFKGEVVDGTVVSCSQHGFEVQVGPMKVFVTKHLMPQDLTFNAGSNPPSYQSSEDVITIKSRIRVKIEGCISQVSSIHAIGSIKEDYLGAI

Variants of B1 are the subject of data set [1]. Nature of the data set: log2 fold change of mutant abundance, UV-irradiated vs unirradiated; higher = more UV resistant (enriched after UV). The settings on record: with Saccharomyces cerevisiae rad7Δ rad26Δ; UV dose (J/m2): 10; genetic background: rad7Δ rad26Δ rpb7Δ + plasmid RPB7 library; outgrowth: 10 cell divisions.
Variants of B1 are the subject of data set [2]. The data set can be described thus: NOISeq theta enrichment statistic, UV-irradiated vs unirradiated (dimensionless); higher = more UV resistant (enriched after UV). As to conditions: with Saccharomyces cerevisiae rad7Δ rad26Δ; UV dose (J/m2): 10; genetic background: rad7Δ rad26Δ rpb7Δ + plasmid RPB7 library; outgrowth: 10 cell divisions.

This note sets out measurements from the supplement of paper PMC10382679.

Single values of this set are uncertain.

MFFIKDLSLNITLHPSFFGPRMKQYLKTKLLEEVEGSCTGKFGYILCVLDYDNIDIQRGRILPTDGSAEFNVKYRAVVFKPFKGEVVDGTVVSCSQHGFEVQVGPMKVFVTKHLMPQDLTFNAGSNPPSYQSSEDVITIKSRIRVKIEGCISQVSSDHAIGSIKEDYLGAI: in data set [1], the “log2 fold change of mutant abundance” value was 0.244. In data set [2], the “NOISeq theta enrichment statistic” value stood at 0.13.

MFFIKDLSLNITLHPSFFGPRMKQYLKTKLLEEVEGSCTGKFGYILCVLDYDNIDIQRGRIFPTDGSAEFNVKYRAVVFKPFKGEVVDGTVVSCSQHGFEVQVGPMKVFVTKHLMPQDLTFNAGSNPPSYQSSEDVITIKSRIRVKIEGCISQVSSIHAIGSIKEDYLGAI: the “log2 fold change of mutant abundance” value in data set [1] is -0.0279. Further, the “NOISeq theta enrichment statistic” value in data set [2] was -0.135.

In the case of MFFIKDLSLNITLHPSFFGPRMKQYLKTKLLEEVEGSCTGKFGYILCVLDYDNIDIQRGRILPTDGSAEFNVKYRAVVFKPFKGEVVDGTVVSCSQHGFEVQVGPMKVFVTKHLMPQDLTFNAGSNPPSYQSSEDVITIKRRIRVKIEGCISQVSSIHAIGSIKEDYLGAI, in data set [1], the “log2 fold change of mutant abundance” value was -0.0826. Further, the “NOISeq theta enrichment statistic” value in data set [2] is -0.25.

Consider MFFIKDLSLNITLHPSFFGPRMKQYLKTKLLEEVEGSCTGKFGYILCVLDYDNIDIQRGRILPTDGSAEFNVKYRAVVFKPFKGEVVDGTVVSCSQHGHEVQVGPMKVFVTKHLMPQDLTFNAGSNPPSYQSSEDVITIKSRIRVKIEGCISQVSSIHAIGSIKEDYLGAI, for which the “log2 fold change of mutant abundance” value in data set [1] is -0.108. The “NOISeq theta enrichment statistic” value in data set [2] is -0.0889.

Consider MFFIKDLSLNITLHPSFFGPRMKQYLKTKLLEEVEGSCTGKFGYILCVLDYDNIDIQRGRILPTDGSAEFNVKYRAVVFKPFKGEVVDGTVVSCSQHGFEVQVGPMKVFVTKHLMPQDLTFNAGSNHPSYQSSEDVITIKSRIRVKIEGCISQVSSIHAIGSIKEDYLGAI, for which, in data set [1], the “log2 fold change of mutant abundance” value was -0.341. For the same variant, the “NOISeq theta enrichment statistic” value in data set [2] is -0.293.

For the variant MFFIKDLSLNITLHPSFFGPRMKQYLKTKLLEEVEGSCTGKFGYILCVLDYDNIDIQRGRILPTDGSAEFNVKYRAVVFKPFKGEVVDGTVVSCSQHGFEVQVGPMKVFVTKHLMPQDLTFNAGSNPPSYQSSEDVITIKSRIRVKMEGCISQVSSIHAIGSIKEDYLGAI, the “log2 fold change of mutant abundance” value in data set [1] is -0.151. In data set [2], the “NOISeq theta enrichment statistic” value is -0.2.

Turning to MFFIKDLSLNITLHPSFFGPRMKQYLKTKLLEYVEGSCTGKFGYILCVLDYDNIDIQRGRILPTDGSAEFNVKYRAVVFKPFKGEVVDGTVVSCSQHGFEVQVGPMKVFVTKHLMPQDLTFNAGSNPPSYQSSEDVITIKSRIRVKIEGCISQVSSIHAIGSIKEDYLGAI, the “log2 fold change of mutant abundance” value in data set [1] came to 0.127. Further, the “NOISeq theta enrichment statistic” value in data set [2] was found to be 0.126.

With MFFIKDLSLNITLHPSFFGPRMWQYLKTKLLEEVEGSCTGKFGYILCVLDYDNIDIQRGRILPTDGSAEFNVKYRAVVFKPFKGEVVDGTVVSCSQHGFEVQVGPMKVFVTKHLMPQDLTFNAGSNPPSYQSSEDVITIKSRIRVKIEGCISQVSSIHAIGSIKEDYLGAI, in data set [1], the “log2 fold change of mutant abundance” value was found to be 0.66. The “NOISeq theta enrichment statistic” value in data set [2] was 0.318.

For MFFIKDLSLNITLHPSFFGPRMKQYLKTKLLEEVEGSCTGKFGYILCVLDYDNIDIQRGRILPTDGSAEFNVKYRAVVFKPFKGEVVDGTVVSCSQHGFEVQVGPMKVFVTKHLMPQDLTFNAGSNPVSYQSSEDVITIKSRIRVKIEGCISQVSSIHAIGSIKEDYLGAI, the “log2 fold change of mutant abundance” value in data set [1] was -0.58. Also, the “NOISeq theta enrichment statistic” value in data set [2] was -0.407.
